Source: article PMC4844679
Results are given in words; binding and its absence hold for the method and conditions named. In cells and extracts the contact can be indirect. Tags and fused reporters may be left off the sequences shown.

Target: Flag-tagged histone H2B-K119R, S. pombe (S. pombe)
Assay: co-IP; lysates of MMS-challenged S. pombe cells, treated with ethidium bromide for 10 min, precipitated by anti-Flag antibody

binding: no binding
B1: EGFP-tagged Wdr70 (S. pombe), from plasmid Rep41-EGFP-Wdr70 (protein, UniProt Q9UT73 1-576)
chain: MDGTNNTIPLQFGKQAQTYDINALIARFIRPKESFLINSVEKESESKLNSKSTTLQSSDSEDWDSEENEDDITDVGVPGSHEIMFPGHSKIVTTTTFDKNGSRFYTGSLDNTIHCWDLNGLSATNPHPFKIIDPTDTNADNVGRYPVSKLSCSTKNQILALYTHSQPILYDRDGSLIVRFSKGDQYIRNMYNTKGHIAEITDGCWQPDSSQIFLTTGYDSTARIWDVNRTKSQLEVFVHVPEGSHTGLSRIPVTSCAWNPAKPDNFATAVLDGSIQFWQKGSRTKRPVMKIKDAHLPQQGISCLSFSQDGNYLLSRGEDNALRVWDLRNSNKCVNERIDILTPKAGGNAIFSPTQKLILAGSTAVNSMKAPLFVLDAMTLDTKATLFFDSKSTVTASVSAVSWNEKINQVSLGSADGNAYVLFSPNESIRGVKDAAMRPPKSKHIDDDLSSTVHINSLSGSAGTSDFGLVEETTESASAYFLEARRRRNAVRKDPKLSRQPQVGRLLEENSVDDIPLATMLNEDPREALLKYADVAKSNPMFTKMYSETQPTPIYQGVTEGDISSEEGNPSKKQKR
